The supplement of paper PMC12823440, “Inhibitors supercharge kinase turnover through native proteolytic circuits” (Nature, 2025)
Some of the results follow. The calls rarely recur for the same compound in another form.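 Kinases, fused to nanoluciferase, were expressed in K562 cells; luminescence was measured every 4 h from 2 to 18 h as percent of control (DMSO = 100%, positive control = 0%). A time point is decreased if signal falls significantly (2 sigma). Hits were called by the authors by a rule that is not shown; the count of time points alone does not decide it.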

The chains behind the UniProt entries cited, without tags or fusion partners. Where a name states a change or a piece, a line headed by the entry shows the natural chain unless it says otherwise.
UniProt Q16288, whole entry, looked up: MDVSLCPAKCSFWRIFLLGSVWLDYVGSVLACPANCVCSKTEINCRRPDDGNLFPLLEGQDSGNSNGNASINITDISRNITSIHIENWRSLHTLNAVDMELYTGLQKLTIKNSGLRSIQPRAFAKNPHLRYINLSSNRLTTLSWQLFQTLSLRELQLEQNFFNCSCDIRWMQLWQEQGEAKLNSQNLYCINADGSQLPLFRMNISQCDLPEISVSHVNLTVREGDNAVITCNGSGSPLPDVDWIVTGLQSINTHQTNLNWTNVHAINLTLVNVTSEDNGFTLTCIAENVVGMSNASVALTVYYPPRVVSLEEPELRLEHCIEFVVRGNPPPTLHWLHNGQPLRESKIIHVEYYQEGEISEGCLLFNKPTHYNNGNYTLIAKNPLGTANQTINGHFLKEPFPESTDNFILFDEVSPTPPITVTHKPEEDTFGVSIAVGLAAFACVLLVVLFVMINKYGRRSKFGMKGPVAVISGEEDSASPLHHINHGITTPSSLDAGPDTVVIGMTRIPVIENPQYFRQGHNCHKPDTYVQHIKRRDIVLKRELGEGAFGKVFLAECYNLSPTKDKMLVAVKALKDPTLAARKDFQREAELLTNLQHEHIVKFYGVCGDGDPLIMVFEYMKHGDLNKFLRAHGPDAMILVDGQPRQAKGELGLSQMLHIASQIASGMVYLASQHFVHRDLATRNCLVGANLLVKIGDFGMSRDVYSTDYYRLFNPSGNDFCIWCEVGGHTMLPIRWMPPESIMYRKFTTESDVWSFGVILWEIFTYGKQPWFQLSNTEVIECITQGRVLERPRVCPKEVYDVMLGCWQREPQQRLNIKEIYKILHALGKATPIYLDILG
UniProt O96013: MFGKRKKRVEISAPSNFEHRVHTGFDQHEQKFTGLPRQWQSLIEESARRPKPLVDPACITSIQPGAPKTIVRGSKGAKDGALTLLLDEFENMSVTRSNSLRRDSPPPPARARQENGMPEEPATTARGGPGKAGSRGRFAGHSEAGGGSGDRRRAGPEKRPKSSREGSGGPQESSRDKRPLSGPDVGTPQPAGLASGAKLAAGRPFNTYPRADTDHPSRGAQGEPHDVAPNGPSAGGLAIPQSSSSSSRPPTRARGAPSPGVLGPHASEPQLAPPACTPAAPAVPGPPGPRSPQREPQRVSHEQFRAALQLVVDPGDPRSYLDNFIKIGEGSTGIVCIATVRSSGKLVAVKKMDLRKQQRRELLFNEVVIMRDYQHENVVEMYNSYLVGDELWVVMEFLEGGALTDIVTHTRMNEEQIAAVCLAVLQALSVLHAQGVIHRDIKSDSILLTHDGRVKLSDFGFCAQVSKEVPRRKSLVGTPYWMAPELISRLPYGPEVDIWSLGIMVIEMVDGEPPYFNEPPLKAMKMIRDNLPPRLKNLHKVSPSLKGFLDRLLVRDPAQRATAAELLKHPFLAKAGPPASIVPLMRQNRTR
UniProt Q96KB5: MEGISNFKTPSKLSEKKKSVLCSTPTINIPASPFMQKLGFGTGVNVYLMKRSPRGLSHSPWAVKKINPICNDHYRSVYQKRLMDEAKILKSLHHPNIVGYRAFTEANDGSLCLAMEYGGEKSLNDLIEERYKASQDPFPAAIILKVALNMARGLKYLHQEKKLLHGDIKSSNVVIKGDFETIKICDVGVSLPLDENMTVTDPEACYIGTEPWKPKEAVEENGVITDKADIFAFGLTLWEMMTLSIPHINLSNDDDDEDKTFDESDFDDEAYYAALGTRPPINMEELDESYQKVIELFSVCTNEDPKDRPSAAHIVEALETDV
UniProt P09619, whole entry: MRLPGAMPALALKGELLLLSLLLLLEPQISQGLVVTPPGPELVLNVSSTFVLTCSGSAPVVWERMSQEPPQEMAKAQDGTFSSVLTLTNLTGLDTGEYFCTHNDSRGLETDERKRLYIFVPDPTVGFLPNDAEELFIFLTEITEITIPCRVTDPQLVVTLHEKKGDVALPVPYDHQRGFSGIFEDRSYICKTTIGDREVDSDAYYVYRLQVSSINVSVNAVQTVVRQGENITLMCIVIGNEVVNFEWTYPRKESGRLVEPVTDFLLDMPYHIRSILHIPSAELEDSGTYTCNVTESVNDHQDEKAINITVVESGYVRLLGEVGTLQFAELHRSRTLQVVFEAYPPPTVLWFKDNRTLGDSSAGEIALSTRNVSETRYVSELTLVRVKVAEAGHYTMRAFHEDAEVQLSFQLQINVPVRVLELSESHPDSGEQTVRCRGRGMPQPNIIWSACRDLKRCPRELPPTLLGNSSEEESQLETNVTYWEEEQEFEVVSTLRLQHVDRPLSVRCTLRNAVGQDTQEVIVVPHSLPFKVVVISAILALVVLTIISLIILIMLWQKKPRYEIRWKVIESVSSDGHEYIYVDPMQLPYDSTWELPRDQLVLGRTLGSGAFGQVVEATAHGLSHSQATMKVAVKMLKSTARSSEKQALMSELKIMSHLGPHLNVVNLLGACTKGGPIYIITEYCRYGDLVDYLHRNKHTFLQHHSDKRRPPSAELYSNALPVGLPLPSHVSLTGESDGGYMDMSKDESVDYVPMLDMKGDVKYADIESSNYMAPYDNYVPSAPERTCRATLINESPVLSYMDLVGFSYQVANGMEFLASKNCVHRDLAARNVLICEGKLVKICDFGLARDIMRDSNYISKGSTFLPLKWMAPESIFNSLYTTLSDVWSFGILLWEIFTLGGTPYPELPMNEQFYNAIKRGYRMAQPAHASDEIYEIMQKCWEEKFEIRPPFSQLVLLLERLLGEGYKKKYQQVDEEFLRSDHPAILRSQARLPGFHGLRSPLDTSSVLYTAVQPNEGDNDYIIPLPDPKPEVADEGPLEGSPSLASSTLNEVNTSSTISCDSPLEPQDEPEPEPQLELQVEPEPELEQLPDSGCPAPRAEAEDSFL
UniProt Q15118, whole entry, looked up: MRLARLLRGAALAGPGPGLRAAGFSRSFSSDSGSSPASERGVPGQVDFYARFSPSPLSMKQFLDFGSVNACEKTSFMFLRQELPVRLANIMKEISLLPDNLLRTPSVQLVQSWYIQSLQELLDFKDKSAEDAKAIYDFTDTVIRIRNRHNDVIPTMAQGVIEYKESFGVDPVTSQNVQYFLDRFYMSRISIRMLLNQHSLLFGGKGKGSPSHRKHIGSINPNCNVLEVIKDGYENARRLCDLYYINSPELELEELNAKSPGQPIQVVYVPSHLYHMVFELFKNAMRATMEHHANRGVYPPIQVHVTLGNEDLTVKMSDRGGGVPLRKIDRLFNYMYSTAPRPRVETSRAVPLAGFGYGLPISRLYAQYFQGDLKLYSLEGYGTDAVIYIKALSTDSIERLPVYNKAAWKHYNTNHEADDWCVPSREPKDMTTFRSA
UniProt O15530: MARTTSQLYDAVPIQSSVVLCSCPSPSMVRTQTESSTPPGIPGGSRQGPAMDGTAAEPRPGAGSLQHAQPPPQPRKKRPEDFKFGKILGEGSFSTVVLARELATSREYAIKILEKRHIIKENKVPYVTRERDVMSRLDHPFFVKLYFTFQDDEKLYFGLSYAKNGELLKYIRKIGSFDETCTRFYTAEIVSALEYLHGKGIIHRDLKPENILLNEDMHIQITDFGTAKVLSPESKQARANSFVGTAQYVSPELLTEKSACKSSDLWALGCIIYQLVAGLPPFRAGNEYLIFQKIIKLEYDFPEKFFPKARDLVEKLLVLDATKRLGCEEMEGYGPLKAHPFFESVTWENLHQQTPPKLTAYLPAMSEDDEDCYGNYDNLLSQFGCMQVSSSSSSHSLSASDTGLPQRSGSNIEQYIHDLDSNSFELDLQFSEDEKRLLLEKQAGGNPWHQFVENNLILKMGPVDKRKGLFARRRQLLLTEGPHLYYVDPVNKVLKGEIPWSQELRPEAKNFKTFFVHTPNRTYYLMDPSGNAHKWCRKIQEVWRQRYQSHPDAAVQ
UniProt Q9UBF8: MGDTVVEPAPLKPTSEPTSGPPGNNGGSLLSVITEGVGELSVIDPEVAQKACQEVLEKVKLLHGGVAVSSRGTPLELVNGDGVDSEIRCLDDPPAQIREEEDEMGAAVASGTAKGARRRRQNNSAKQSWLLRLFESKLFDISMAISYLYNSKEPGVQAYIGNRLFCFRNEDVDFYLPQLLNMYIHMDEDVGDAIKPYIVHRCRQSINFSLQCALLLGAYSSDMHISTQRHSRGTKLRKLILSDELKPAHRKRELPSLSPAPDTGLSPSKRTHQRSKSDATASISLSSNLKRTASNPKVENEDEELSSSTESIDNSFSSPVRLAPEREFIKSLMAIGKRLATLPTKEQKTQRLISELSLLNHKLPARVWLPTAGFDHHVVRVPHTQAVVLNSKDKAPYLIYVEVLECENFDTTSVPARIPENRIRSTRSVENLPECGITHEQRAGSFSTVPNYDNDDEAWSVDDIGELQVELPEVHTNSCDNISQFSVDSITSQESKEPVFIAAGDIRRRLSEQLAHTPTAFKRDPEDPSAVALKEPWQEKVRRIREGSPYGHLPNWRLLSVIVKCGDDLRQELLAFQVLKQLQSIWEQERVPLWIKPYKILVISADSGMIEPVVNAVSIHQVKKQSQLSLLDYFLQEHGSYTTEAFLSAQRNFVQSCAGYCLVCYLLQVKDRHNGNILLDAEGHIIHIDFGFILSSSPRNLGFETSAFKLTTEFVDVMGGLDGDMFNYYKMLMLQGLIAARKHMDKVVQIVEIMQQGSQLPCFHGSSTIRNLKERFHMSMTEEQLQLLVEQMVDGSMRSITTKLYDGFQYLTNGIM
UniProt P53350, whole entry: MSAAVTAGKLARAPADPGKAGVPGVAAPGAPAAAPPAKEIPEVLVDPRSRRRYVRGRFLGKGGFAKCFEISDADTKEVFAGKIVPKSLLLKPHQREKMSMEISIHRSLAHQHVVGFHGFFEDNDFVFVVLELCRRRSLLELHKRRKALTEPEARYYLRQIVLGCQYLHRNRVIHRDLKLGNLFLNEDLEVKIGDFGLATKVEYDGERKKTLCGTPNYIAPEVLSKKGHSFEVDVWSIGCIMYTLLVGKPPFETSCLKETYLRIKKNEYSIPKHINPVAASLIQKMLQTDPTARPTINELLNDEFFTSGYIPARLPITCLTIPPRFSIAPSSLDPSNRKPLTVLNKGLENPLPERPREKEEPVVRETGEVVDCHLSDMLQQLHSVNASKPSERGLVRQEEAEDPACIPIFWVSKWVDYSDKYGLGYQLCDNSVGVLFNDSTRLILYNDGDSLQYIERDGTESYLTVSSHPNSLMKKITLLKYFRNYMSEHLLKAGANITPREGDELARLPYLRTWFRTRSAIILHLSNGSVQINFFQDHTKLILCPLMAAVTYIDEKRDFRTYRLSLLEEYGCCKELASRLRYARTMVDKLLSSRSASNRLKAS
UniProt Q13131: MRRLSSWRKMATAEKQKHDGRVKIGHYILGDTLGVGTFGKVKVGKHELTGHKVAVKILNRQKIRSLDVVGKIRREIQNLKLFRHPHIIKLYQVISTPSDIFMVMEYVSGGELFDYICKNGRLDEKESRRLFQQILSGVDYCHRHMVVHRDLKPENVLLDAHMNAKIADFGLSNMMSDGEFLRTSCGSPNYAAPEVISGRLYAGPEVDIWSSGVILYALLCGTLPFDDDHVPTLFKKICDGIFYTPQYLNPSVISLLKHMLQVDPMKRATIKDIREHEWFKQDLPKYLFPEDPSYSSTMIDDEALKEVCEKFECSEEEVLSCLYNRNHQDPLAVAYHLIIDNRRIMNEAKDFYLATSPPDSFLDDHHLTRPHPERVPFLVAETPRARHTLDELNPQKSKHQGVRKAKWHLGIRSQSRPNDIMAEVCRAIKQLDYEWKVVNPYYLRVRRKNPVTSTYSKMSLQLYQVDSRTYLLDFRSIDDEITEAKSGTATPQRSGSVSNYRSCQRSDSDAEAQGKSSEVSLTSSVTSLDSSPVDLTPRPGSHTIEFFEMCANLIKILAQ

How the values were obtained:
Experiment in all cases: number of time points (of 5) at which kinase-Nluc abundance scored as decreased, DMSO-normalised (count); higher = more persistent destabilization
Settings in all cases: K562; 2-18 h
[1] = biological target: NTRK3 (UniProt Q16288)
[2] = biological target: PAK4 (UniProt O96013)
[3] = biological target: PBK (UniProt Q96KB5)
[4] = biological target: PDGFRB (UniProt P09619)
[5] = biological target: PDK1 (UniProt Q15118)
[6] = biological target: PDPK1 (UniProt O15530)
[7] = biological target: PIK4CA (UniProt P42356)
[8] = biological target: PIK4CB (UniProt Q9UBF8)
[9] = biological target: PLK1 (UniProt P53350)
[10] = biological target: PRKAA1 (UniProt Q13131)

Measured: number of time points

c1ccc(-c2nn3c(c2-c2ccnc4cc(OCCN5CCOCC5)ccc24)CCC3)nc1 (10 µM)
0: all assays above

CN(C)Cc1cccc(N=C(c2ccccc2)c2c(O)[nH]c3cc(C(N)=O)ccc23)c1 (10 µM)
0: all assays above

CCc1ccc(C(=O)COc2ccc(CC3SC(=O)NC3=O)cc2)nc1 (stereo not given) (10 µM)
0: all assays above

CC1(COc2ccc3c(c2)ncn3-c2ccc3cccc(N4CCC(N)CC4)c3n2)COC1 [Crenolanib] (2.5 µM)
2: [8]
0: all other assays above

CN(C)c1nc2c(Br)c(Br)c(Br)c(Br)c2n1CC(=O)O (10 µM)
0: all assays above

CN(C)c1ncnc2nc[nH]c12 [6-(Dimethylamino)purine] (10 µM)
0: all assays above

O[C@H]1CC[C@H](Nc2ncc3nc(Nc4c(F)cc(F)cc4F)n([C@H]4CCOC4)c3n2)CC1 [Tanzisertib] (10 µM)
0: all assays above

O=C(Nc1ccc(Cl)c(Cl)c1)Nc1ccc2nnsc2c1 (10 µM)
0: all assays above

C[C@@H]1O[C@@H](OC[C@H]2O[C@@H](Oc3cc(O)c4c(c3)O[C@H](c3ccc(O)cc3)CC4=O)[C@H](O)[C@@H](O)[C@@H]2O)[C@H](O)[C@H](O)[C@H]1O [Narirutin] (10 µM)
0: all assays above

c1cc(-c2cnn3cc(-c4ccc(N5CCNCC5)cc4)cnc23)c2cccnc2c1 (2.5 µM)
1: [1]
0: all other assays above

O=C(c1ccc(Nc2nccc(-c3cc4ccccc4s3)n2)cc1)N1CCC(N2CCCC2)CC1 (2.5 µM)
0: all assays above

CC1(N)CCN(c2cnc3c(-c4cccc(Cl)c4Cl)[nH]nc3n2)CC1 (2.5 µM)
0: all assays above

COc1ccc2c(c1)c(C1=C(c3c[nH]c4ccccc34)C(=O)NC1=O)cn2CCCN(C)C (10 µM)
0: all assays above

O=Nc1c(-c2c(O)[nH]c3ccccc23)[nH]c2ccccc12 [Indirubin-3'-monoxime] (2.5 µM)
2: [1]
0: all other assays above

Cn1cc(-c2ccc3nnc(C(F)(F)c4ccc5ncccc5c4)n3n2)cn1 (10 µM)
0: all assays above

Cc1cc2ncc(-c3ccccc3)nc2cc1C (10 µM)
0: all assays above

CC(C)c1cc(/C=C(\C#N)C(N)=O)cc(C(C)C)c1O (10 µM)
0: all assays above

O=C(CCCCCn1cc(Nc2ncc(Cl)c(Nc3ccc(Cl)cc3)n2)cn1)NO (2.5 µM)
1: [4] | [5] | [7]
0: all other assays above

COc1ccc2c(Oc3ccc(NC(=O)c4c(C)n(CC(C)(C)O)n(-c5ccccc5)c4=O)cc3F)ccnc2c1 (2.5 µM)
3: [6]
1: [8]
0: all other assays above

O=c1ccoc2cc(O)ccc12 [7-Hydroxy-4H-chromen-4-one] (10 µM)
0: all assays above

O=C(O)c1ccc(N2N=C(Cc3ccccc3)C(=Cc3ccc(-c4ccccc4F)o3)C2=O)cc1 (10 µM)
0: all assays above

CCN1/C(=C/C(C)=O)Sc2ccc(OC)cc21 (10 µM)
1: [2] | [5] | [8] | [10]
0: all other assays above

CC[C@@H](N)CNc1ccnc(-c2cc(-c3cnn(C)c3)ccc2O)n1 (2.5 µM)
1: [6]
0: all other assays above

O=c1ccc2ccc(O)c(O)c2o1 [Daphnetin] (10 µM)
0: all assays above

CCCC(=O)Nc1nc2c(ncn2[C@@H]2O[C@@H]3COP(=O)(O)O[C@H]3[C@H]2OC(=O)CCC)c(=O)[nH]1 [Dibutyryl-cGMP (sodium)] (10 µM)
0: all assays above

COc1ccc(CCNc2ncc3c(=O)n(-c4cccc(F)c4)c(=O)[nH]c3n2)cc1OC (2 µM)
0: all assays above

c1ccc(-c2oc3ncnc(NC[C@@H]4CCCO4)c3c2-c2ccccc2)cc1 (2.5 µM)
0: all assays above

Cn1ncc(Cl)c1-c1cc(C(=O)N[C@H](CN)Cc2ccc(F)c(F)c2)sc1Cl (10 µM)
1: [7] | [8] | [9]
0: all other assays above

COc1cc(N2CCC(O)CC2)ccc1Nc1cc(Nc2ccccc2S(=O)(=O)C(C)C)c2cc[nH]c2n1 (10 µM)
0: all assays above

In the list so far, 5 have an aryl methoxy group:
COc1ccc2c(c1)c(C1=C(c3c[nH]c4ccccc34)C(=O)NC1=O)cn2CCCN(C)C (10 µM)
0: all assays above

COc1ccc2c(Oc3ccc(NC(=O)c4c(C)n(CC(C)(C)O)n(-c5ccccc5)c4=O)cc3F)ccnc2c1 (2.5 µM)
3: [6]
1: [8]
0: all other assays above

CCN1/C(=C/C(C)=O)Sc2ccc(OC)cc21 (10 µM)
1: [2] | [5] | [8] | [10]
0: all other assays above

COc1ccc(CCNc2ncc3c(=O)n(-c4cccc(F)c4)c(=O)[nH]c3n2)cc1OC (2 µM)
0: all assays above

COc1cc(N2CCC(O)CC2)ccc1Nc1cc(Nc2ccccc2S(=O)(=O)C(C)C)c2cc[nH]c2n1 (10 µM)
0: all assays above

The listing continues:

CN1C(=O)NC(Cc2c[nH]c3c(Cl)cccc23)C1=O (racemic) [Necrostatin 2 (racemate)] (10 µM)
0: all assays above

O=C1NC(=O)C(c2cnc3ccccn23)=C1c1cn2c3c(cc(F)cc13)CN(C(=O)N1CCCCC1)CC2 (2.5 µM)
0: all assays above

CC(=O)Nc1nc2ccc(-c3cnc(C)c(NC(=O)OC4CCCCC4)c3)cc2s1 (10 µM)
0: all assays above

Cc1cnc(Nc2ccc(N3CCN(C)CC3)cc2)nc1Nc1cccc(S(=O)(=O)NC(C)(C)C)c1 (2.5 µM)
0: all assays above

CC(=O)Nc1nc(C)c(-c2nc(N3CCCC(O)C3)no2)s1 (stereo not given) (10 µM)
0: all assays above

COc1cc(N2CCC(N3CCN(C)CC3)CC2)ccc1Nc1nc2c(c(Nc3ccccc3S(=O)(=O)NC(C)C)n1)CCN2 [Conteltinib] (10 µM)
0: all assays above

COC1(C(=O)N[C@@H](C)c2ccc(-n3cc(F)cn3)nc2)CCC(c2nc(C)cc(Nc3cc(C)[nH]n3)n2)CC1 (stereo partly drawn) [trans-Pralsetinib] (2.5 µM)
0: all assays above

O=c1cc(-c2ccc(O)c(O)c2O)oc2ccccc12 (10 µM)
0: all assays above

O=C(O)c1cc(O)c2c(c1)[C@@H]([C@H]1c3cc(C(=O)O)cc(O)c3C(=O)c3c(O[C@@H]4O[C@H](CO)[C@@H](O)[C@H](O)[C@H]4O)cccc31)c1cccc(O[C@@H]3O[C@H](CO)[C@@H](O)[C@H](O)[C@H]3O)c1C2=O [Sennoside B] (2.5 µM)
0: all assays above
